Measured values reported in patent US20260167731A1.
No constants are given. Whether binding was seen depends on the method and setting. Some results given as binding are weak or reduced against the parent protein; the word gives no strength.

By UniProt entry, the sequences of proteins in these tests, tags left out. Where a name states a change or a piece, a line headed by the entry shows the natural chain unless it says otherwise.
UniProt P51685: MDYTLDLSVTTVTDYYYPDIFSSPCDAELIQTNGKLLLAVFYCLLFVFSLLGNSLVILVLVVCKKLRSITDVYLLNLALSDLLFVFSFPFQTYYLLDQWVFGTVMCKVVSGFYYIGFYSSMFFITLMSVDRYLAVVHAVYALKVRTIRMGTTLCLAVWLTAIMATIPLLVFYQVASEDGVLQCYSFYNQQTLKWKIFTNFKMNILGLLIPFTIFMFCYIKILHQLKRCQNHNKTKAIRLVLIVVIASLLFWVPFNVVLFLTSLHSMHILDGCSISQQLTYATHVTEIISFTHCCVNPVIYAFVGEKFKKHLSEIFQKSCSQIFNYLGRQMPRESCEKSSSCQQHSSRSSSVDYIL

Experiments:
human CCR8 (human) = human CCR8 (human) (UniProt P51685); experiment: flow cytometry, hCCR8 transfected CHOK1 cells
[1] = target: pm1, modified CCR8 related peptide (human); experiment: ELISA on coated CCR8 peptide (500 ng/mL), OD [cont.]
[2] = target: pm2, modified CCR8 related peptide (human); experiment: as above
[3] = target: pm3, modified CCR8 related peptide (human); experiment: as above
[4] = target: pm4, modified CCR8 related peptide (human); experiment: as above
[5] = target: pm5, modified CCR8 related peptide (human); experiment: as above
[6] = target: pm6, modified CCR8 related peptide (human); experiment: as above
[7] = target: pm8, modified CCR8 related peptide (human); experiment: as above
[8] = target: pwt1, unmodified CCR8 related peptide (human); experiment: as above

Measured: binding

B1: anti-CCR8 mAb 2-9 (antibody, V domains shown)
VH: QVQLQQPGSELVRPGASVKLSCKASGYTFTSYWMHWVKQRPGQGLEWIGNIWPGSASTNYDEKFKNKATLTVDTSSSTAYMQLSSLTSEDSAVYYCIRGGKGAMDYWSQGTSVTVSS
VL: DVVMTQIPLSLPVSLGDQASISCRSSQSLENSYGNTYLNWYLQKPGQSPQLLIYRVSNRFSGVLDRFSGSGSGTDFTLKISRVEAEDLGVYFCLQVTHVPPTFGAGTKLELK
binds: all assays above
